Consider 1 substance from patent publication US20230399408A1 (AB THERAPEUTICS, published 2023).

The chains behind the UniProt entries cited, without tags or fusion partners. Residues count along the entry.
UniProt P08581, residues 25-932: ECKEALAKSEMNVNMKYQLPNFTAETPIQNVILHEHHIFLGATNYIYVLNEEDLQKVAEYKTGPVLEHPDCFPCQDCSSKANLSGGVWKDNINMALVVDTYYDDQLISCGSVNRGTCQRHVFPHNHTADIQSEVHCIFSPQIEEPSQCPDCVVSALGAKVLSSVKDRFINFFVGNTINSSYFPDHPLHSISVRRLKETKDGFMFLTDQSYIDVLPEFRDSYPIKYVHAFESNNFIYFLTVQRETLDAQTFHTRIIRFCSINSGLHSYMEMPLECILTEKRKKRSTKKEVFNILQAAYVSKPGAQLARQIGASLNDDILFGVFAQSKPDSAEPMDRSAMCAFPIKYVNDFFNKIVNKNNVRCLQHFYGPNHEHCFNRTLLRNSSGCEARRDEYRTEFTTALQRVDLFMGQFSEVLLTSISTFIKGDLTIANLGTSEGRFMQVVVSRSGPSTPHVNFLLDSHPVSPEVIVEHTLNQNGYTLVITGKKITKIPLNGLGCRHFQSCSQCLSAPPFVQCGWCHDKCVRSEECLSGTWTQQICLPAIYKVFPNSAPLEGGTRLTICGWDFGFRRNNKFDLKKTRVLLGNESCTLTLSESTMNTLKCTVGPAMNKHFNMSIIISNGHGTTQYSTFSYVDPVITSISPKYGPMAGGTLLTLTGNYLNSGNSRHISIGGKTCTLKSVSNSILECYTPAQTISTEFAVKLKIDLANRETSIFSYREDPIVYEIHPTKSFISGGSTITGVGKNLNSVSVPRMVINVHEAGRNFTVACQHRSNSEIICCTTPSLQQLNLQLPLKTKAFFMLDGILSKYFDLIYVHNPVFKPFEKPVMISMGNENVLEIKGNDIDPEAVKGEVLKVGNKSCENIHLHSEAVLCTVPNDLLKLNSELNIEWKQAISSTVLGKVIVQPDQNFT
UniProt P14210, residues 32-728: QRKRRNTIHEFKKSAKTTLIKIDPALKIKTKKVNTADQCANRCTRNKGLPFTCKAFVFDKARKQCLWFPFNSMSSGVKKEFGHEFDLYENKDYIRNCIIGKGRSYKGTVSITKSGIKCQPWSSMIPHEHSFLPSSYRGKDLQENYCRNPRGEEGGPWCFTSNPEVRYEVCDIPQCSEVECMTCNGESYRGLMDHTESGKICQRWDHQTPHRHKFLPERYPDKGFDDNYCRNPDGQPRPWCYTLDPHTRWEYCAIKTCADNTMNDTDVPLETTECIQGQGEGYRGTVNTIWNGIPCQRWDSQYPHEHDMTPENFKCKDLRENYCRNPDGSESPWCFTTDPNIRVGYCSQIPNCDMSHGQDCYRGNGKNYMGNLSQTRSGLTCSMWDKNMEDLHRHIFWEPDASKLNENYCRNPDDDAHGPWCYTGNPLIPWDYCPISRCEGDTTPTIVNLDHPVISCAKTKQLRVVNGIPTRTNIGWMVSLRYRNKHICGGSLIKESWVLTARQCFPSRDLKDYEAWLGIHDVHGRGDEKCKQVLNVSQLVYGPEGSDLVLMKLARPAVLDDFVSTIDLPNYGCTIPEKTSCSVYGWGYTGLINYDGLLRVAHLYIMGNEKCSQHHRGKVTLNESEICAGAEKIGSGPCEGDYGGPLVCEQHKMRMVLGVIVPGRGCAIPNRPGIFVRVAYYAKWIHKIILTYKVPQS

Results are given in words; binding and its absence hold for the method and conditions named. Some entries that bind do so weakly or less than the wild type.

The target of the experiment is c-MET-Fc tag protein (UniProt P08581). Kind of experiment: ELISA on coated c-MET-Fc tag protein (4 ug/ml), biotinylated Hu-HGF 5 nM, streptavidin-HRP.

On to “biotinylated Hu-HGF protein (from UniProt P14210 32-728) (ligand)”, for which the binding entry is reported as “binds”.
